In PubChem BioAssay AID2685 (National Center for Advancing Translational Sciences (NCATS), 2010):
Among all 320,000 compounds or so, about 2,100 (0.66%) were called active. This list was built around the results that the source calls inconclusive (neither active nor inactive); the mix of calls is not that of the screen. Calls follow the shape of the dose curve; as a rule, active = well fitted inhibition curve with a large enough effect in the signal ratio, with a control signal flat (not every such curve was filed as active); inconclusive = small, poorly fitted or top-dose-only effect, or effect the other way, or a change in a side signal; inactive = flat fitted curve, though single readings scatter; the % refers to the signal ratio. Potencies of inconclusive entries are doubtful fits and often do not repeat.

Experiment: qHTS Assay for Lipid Storage Modulators in Drosophila S3 Cells
Details: BODIPY lipid droplet fluorescence, 18-24 h, cells fed with added oleic acid; lipid storage change, negative = inhibition: at 46.1 µM (top of the series) unless noted
How it was run: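 Laser-scanning cytometry quantifies lipid droplet accumulation (500–530 nm total intensity; droplet/cell object ratio) in oleic acid-fed (400 uM added) Drosophila S3 cells treated with a concentration series. 20 uM Triacsin C defined 100% inhibition.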
% is scaled to controls: 0 for no effect and ±100 for the full control effect; potency is read from the fitted curve at half-maximal effect.

Compound	lipid storage change, negative = inhibition	Potency
c1coc(CN2CN=C(Nc3nc4ccccc4s3)NC2)c1	inconclusive: 26.3%	
O=C(NCc1ccc(Cl)cc1)C1CCCN(C(=O)c2ccc(Cl)cc2)C1 (stereo unspecified)	inconclusive: 40.3%	
C#CCNc1nc(C)nc2c1nnn2Cc1ccccc1F	inconclusive: 21.3%	
COc1ccccc1C(=O)NC(CCSC)C(=O)NCc1ccncc1 (stereo unspecified)	inconclusive: 7.46%	
Cc1noc(C)c1C(=O)OC(C(=O)NC1CCCC1)c1ccc(F)cc1 (stereo unspecified)	inconclusive: 41.7%	
COCCNC(=S)NNC(=O)CSCc1ccc(Cl)cc1Cl	inconclusive: 13.4%	
Cc1cc(=O)oc2cc(OC(C)C(=O)NCCCN3CCCC3=O)c(Cl)cc12 (stereo unspecified)		inconclusive: 7.31 µM [activator, partial curve]
O=C1OC(Nc2nc(-c3ccc(F)cc3)cs2)c2ccccc21 (stereo unspecified)		inconclusive: 0.0116 µM [activator, full curve]
COc1ccc(S(=O)(=O)N2CCCCCC2)cc1C(=O)N(C)Cc1c(F)cccc1Cl	inconclusive: 4.96%	
Fc1ccccc1/C=N/Nc1nc(N2CCCCC2)nc(N2CCCCC2)n1	inconclusive: -30.7%	
Cc1cccc(C(=O)OCC(=O)Nc2ccc3c(c2)OCCO3)c1	inconclusive: 16.5%	
CNS(=O)(=O)c1cccc(C(=O)OCC(=O)/C=C2/N(C)c3ccccc3C2(C)C)c1	inconclusive: -29.1%	
Cc1ccc2oc(=O)c3cc(C(=O)NCCN4CCc5ccccc5C4)sc3c2c1		inconclusive: 0.92 µM [rising, full curve, poor fit]
CCCn1nc(C(=O)N2CCN(S(=O)(=O)c3ccc(C)c(C)c3)CC2)c2ccccc2c1=O		active: 11.6 µM
COCCCNC(=S)N/N=C/c1cccc(OC)c1O	inconclusive: 2.6%	
COc1nc2c(C)cccc2cc1-c1noc(-c2ccncc2)n1	inconclusive: 12.4%	
CCc1cc2c(SCC(=O)N(CC)c3c(N)n(Cc4ccccc4)c(=O)[nH]c3=O)ncnc2s1	inconclusive: -72.4%	
CC(=O)c1c(C)[nH]c(C(=O)OCC(=O)Nc2c(C)n(C)n(-c3ccccc3)c2=O)c1C	inconclusive	
C=CCn1c(C)c(C(C)=O)c(N2CCCC2)nc1=S	inactive	
O=C(Nc1scc(-c2ccccc2)c1C(=O)O)c1ccc(F)cc1		inconclusive: 29.1 µM [activator, single point]
Cc1ccc(Cl)cc1N1CCN(C(=O)c2ccc(NC3=NC4CS(=O)(=O)CC4S3)cc2)CC1 (stereo unspecified)		inconclusive: 29.1 µM [falling, single point]
Cc1cc(S(=O)(=O)N2CCCCC2)ccc1OCC(=O)Nc1ccccc1		inconclusive: 15.8 µM [falling, single point]
CCOC(=O)N1CCc2c(sc3c2c(=O)n(Cc2ccccc2)c(=O)n3Cc2ccc(C)cc2)C1		inconclusive: 5.17 µM [activator, partial curve]
Cn1c(=N)n(CC(=O)c2cccs2)c2ccccc21	inconclusive: -10.8%	
O=C(NCCN1CCOCC1)c1ccc(CS(=O)(=O)Cc2ccccc2F)o1	inconclusive: 5.93%	
O=C(COC(=O)c1ccccn1)Nc1cccc(Cl)c1Cl	inactive	

Compound	lipid storage change, negative = inhibition	Potency
O=C(NCCC1=CCCCC1)C1CCN(S(=O)(=O)N2CCOCC2)CC1	inconclusive: 0.181%	
COc1ccc(NC(=O)c2ccccc2NC(=O)CSc2ccccc2)cc1	inconclusive: -2.36%	
Cc1nnc(SCc2ccccc2C#N)n1-c1ccccc1		inconclusive: 0.13 µM [activator, single point]
O=C(Nc1ccccc1)Nc1nc(-c2ccc(F)cc2)cs1	inconclusive: 30.7%	
CC(=O)CC1(O)C(=O)N(CN2CCN(c3ccccc3)CC2)c2ccccc21 (stereo unspecified)	inconclusive: -16.8%	
Cc1nnc(SCC(=O)NN2C(=O)NC3(CCCCC3)C2=O)s1	inconclusive: 10%	
COC(=O)CSC(C(=O)Nc1ccc(C)c(C)c1)c1ccccc1 (stereo unspecified)	inconclusive: 11.9%	
CCOC(=O)c1c(NC(=O)CSc2nnc(-c3c[nH]c4ccccc34)n2C)sc2c1CCCC2		inconclusive: 1.46 µM [activator, partial curve]
Cc1cc(C)nc(NC(=O)c2cccc(Br)c2)n1	inconclusive: 9.02%	
CN1C(=O)C(C(=O)NC(C)(C)C)C2c3ccccc3OC13CCCCC23 (stereo unspecified)		inconclusive: 29.1 µM [falling, single point]
O=S(=O)(NCCc1ccncc1)c1ccc(Br)cc1		inconclusive: 6.51 µM [activator, single point]
CC(=O)Cc1nsc(Nc2ccc(Cl)cc2)n1	inconclusive: -0.777%	
CCOC(=O)C(Cc1ccccc1)c1ccnc2ncnn12 (stereo unspecified)	inconclusive: -46.5% [at 0.00295 µM]	
CCn1c(SCC(=O)Nc2ccc(C(C)=O)cc2)nc2c([nH]c3ccccc32)c1=O	inconclusive: -86.7%	
O=C(NCc1ccccc1)C(c1cccnc1)N(Cc1ccco1)C(=O)c1ccccn1 (stereo unspecified)	inconclusive: 14.5%	
Nc1nnc(CC(=O)N/N=C/c2ccccc2OCc2ccccc2F)s1	inconclusive: 8.97%	
CC1CCCCN1C(=O)CSc1nc(-c2ccccc2)cc(=O)[nH]1 (stereo unspecified)		inconclusive: 32.6 µM [activator, single point]
CCN(CC(=O)Nc1cc(Cl)ccc1C)C(=O)c1cc([N+](=O)[O-])ccc1N1CCOCC1	inconclusive: 11.9%	
O=C(CNC(=O)c1ccc2c(c1)OCCO2)N=Nc1c(O)[nH]c2ccccc12	inconclusive: 15.9%	
Cc1ccc(NC(=O)CCC(=O)OCC(F)(F)C(F)F)cc1	inconclusive: -19.4%	
CCCCOc1ccc(/C=C/C(=O)Nc2ccc([N+](=O)[O-])cc2C)cc1	inconclusive: -6.5%	
O=C(CCl)N(C/C=C/c1ccccc1)c1ccc2c(c1)OCCO2	inactive	
COc1cc(NC(=S)NCCCN2CCOCC2)c(OC)cc1Cl	inconclusive: -11%	
C#CCSc1nnc(CNS(=O)(=O)c2ccc(Br)cc2)n1C	inconclusive: 4.94%	
Cc1ccc(NC(=O)CSCC(=O)OCc2cc(=O)oc3cc(O)ccc23)c(C)c1		inconclusive: 8.2 µM [activator, partial curve, poor fit]

3 compounds already listed, arranged by heavy-atom count, low to high.
Compound	lipid storage change, negative = inhibition	Potency
O=C(CCl)N(C/C=C/c1ccccc1)c1ccc2c(c1)OCCO2	inactive	
CCCCOc1ccc(/C=C/C(=O)Nc2ccc([N+](=O)[O-])cc2C)cc1	inconclusive: -6.5%	
Cc1ccc(Cl)cc1N1CCN(C(=O)c2ccc(NC3=NC4CS(=O)(=O)CC4S3)cc2)CC1 (stereo unspecified)		inconclusive: 29.1 µM [falling, single point]
